# Primary screen of a compound library

The chains behind the UniProt entries cited, without tags or fusion partners.
UniProt P9WNZ1, whole entry: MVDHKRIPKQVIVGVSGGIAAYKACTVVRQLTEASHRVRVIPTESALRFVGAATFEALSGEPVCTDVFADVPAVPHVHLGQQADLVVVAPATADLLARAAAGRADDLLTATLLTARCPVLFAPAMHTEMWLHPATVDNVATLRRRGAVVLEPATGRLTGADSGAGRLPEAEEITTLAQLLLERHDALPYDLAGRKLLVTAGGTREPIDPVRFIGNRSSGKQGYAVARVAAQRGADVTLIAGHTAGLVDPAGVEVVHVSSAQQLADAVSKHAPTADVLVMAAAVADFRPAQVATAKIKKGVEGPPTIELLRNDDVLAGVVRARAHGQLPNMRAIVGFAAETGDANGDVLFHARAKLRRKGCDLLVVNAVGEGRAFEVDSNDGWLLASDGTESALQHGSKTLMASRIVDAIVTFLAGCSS

Data taken from ChEMBL document CHEMBL3988442, “University of Dundee, Small-Polar-MMV Screening Library” (2021).

Toxoplasma: 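Assay of Toxoplasma gondii numbers, read through their beta-galactosidase reporter with a colour substrate. Tested at 10 µM. Higher reads as fewer parasites (inferred from which compounds were picked for retests). Of about 67,000 compounds tested this way, about 260 (0.38%) reached 50% or more in at least one test.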
CoaBC: 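Enzyme assay of CoaBC with a phosphate dye (Biomol Green) read at 650 nm. Target: Coenzyme A biosynthesis protein CoaBC, Mycobacterium tuberculosis (UniProt P9WNZ1). Concentration: 30 µM. Direction is inferred from only a few compounds that gave an IC50; most scored high, so higher reads as stronger inhibition. Most strong results did not repeat in a second test. About 67,000 compounds were tested under these conditions; 0.06% (about 40) showed 50% or more at least once.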

Results are given as percent effect. The record does not define 0% and 100%; most values in the screen are far below 50% and negative numbers occur (in some assays of this library far below -100). This is an unselected part of the compounds tested. A dash means the value is not listed here; it may have been measured.

CC(C)C(NC(=O)NCC1CC1)c1nnc2n1CCC2 (configuration not stated) read Toxoplasma: 2.287%; CoaBC: -0.5076%. With COc1cccc2c1ccn2CCNC(=O)CC(C)C the screen gave Toxoplasma: -32.36%; CoaBC: 1.515%. CC(C)N(C)CC(=O)NCCc1nc(C(F)(F)F)cs1 read Toxoplasma: 1.591%; CoaBC: 6.226%. For CCN1CCN(c2ccc(F)cc2C(C)NCc2cscn2)CC1 (configuration not stated) the result was Toxoplasma: 0.4058%; CoaBC: -21.03%. With O=C1CN([C@@H]2CC[C@@H](NS(=O)(=O)c3ccccc3F)[C@H]2O)CCN1 the screen gave Toxoplasma: -0.1233%; CoaBC: -15.25%. Result for CCCN1CCC(c2nc3ccc(-c4ccncc4)cn3n2)CC1.O=C(O)C(F)(F)F.O=C(O)C(F)(F)F was Toxoplasma: -11.36%. With CNc1cc2c(nn1)CCN(C(=O)C1CCCc3ccccc31)C2 (configuration not stated) the screen gave CoaBC: 4.113%.

For Cc1cc(C(=O)N2CCCC(c3nc(C)no3)C2)on1 (configuration not stated) the result was Toxoplasma: 7.555%; CoaBC: -33.59%. Result for CN1C(=O)C[C@H]2[C@H]1CCN2Cc1cccc(C#N)c1 was CoaBC: 4.25%. CCn1cnnc1C1CCN(C(=O)c2ccc(Cl)cc2OC)CC1 read Toxoplasma: 3.164%; CoaBC: -2.452%. With [H][C@@]12CS(=O)(=O)C[C@]1([H])N(C(=O)c1cnc(C)cn1)CCN2C(=O)CC(C)C the screen gave Toxoplasma: -1.406%. With N#Cc1c[nH]c(C(=O)N(Cc2ccc(O)cc2)CC2CC2)c1 the screen gave Toxoplasma: -3.472%; CoaBC: 2.114%. CCCNC(=O)NC(=O)CN(CC(C)O)c1ccccc1 (configuration not stated) read Toxoplasma: -7.029%; CoaBC: 4.103%. Cc1cnn(CC2CCCN2C(=O)c2nccnc2N)c1 (configuration not stated) read Toxoplasma: -5.715%; CoaBC: 8.094%.

CO[C@H]1CCN(S(=O)(=O)c2cn(C)cn2)[C@H]1Cc1ccccc1.O=C(O)C(F)(F)F gave Toxoplasma: 7.143%. Cc1occc1C(=O)N1CCC2(CC1)CN(Cc1nccs1)CCO2.O=C(O)C(F)(F)F read Toxoplasma: -4.762%. For CN(C)C(=O)Cc1ccc(NC(=O)NC2CC2)cc1 the result was Toxoplasma: 3.255%; CoaBC: 11.58%. CCCS(=O)(=O)N1CCCC1c1cccc(N(C)C)c1 (configuration not stated) read Toxoplasma: 8.169%. With CCCN(C(=O)c1ccncc1)c1nc2c(s1)CCc1c-2cnn1C the screen gave Toxoplasma: -4.597%; CoaBC: 5.637%. With Cc1cc2c(=O)n3c(nc2s1)CCN(C(=O)c1nn(C)cc1Cl)CC3 the screen gave Toxoplasma: 11.66%; CoaBC: 1.112%. CCS(=O)(=O)N1CCOC2(CCCN(c3ccccn3)C2)C1 (configuration not stated) read CoaBC: 6.515%.

[H][C@@]12CCN(C(=O)c3cc(-c4ccco4)nc4c(Cl)cccc34)[C@]1([H])CNC2 read Toxoplasma: 5.3%. For NC(=O)c1cc2c(nc1N1C[C@H]3OC(=O)N(C4CCCC4)[C@H]3C1)CCC2 the result was CoaBC: 11.74%. With O=S(=O)(Nc1cnc(N2CCCC2)nc1)c1ccc(OC(F)(F)F)cc1 the screen gave Toxoplasma: 16.26%; CoaBC: 1.937%. Cn1c(=O)cc(C(=O)NC(Cc2ccsc2)c2cccnc2)[nH]c1=O (configuration not stated) read Toxoplasma: 9.367%; CoaBC: 8.159%. With O=C(CC1CCCO1)NCc1ccccc1Cn1cncn1 (configuration not stated) the screen gave Toxoplasma: -7.596%; CoaBC: 4.841%. For CSCCC(=O)N1CCc2c(ncnc2N2CCOCC2)C1 the result was Toxoplasma: -9.475%; CoaBC: 3.353%. With NC(=O)N1Cc2nccn2CC(Cn2ncccc2=O)C1 (configuration not stated) the screen gave Toxoplasma: -15.16%; CoaBC: 1.603%.

For O=C(O)C(F)(F)F.[H][C@@]12COC[C@]1(CNS(C)(=O)=O)CN(CC1CCCC1)C2 the result was Toxoplasma: -3.174%. Result for O=C1CC[C@H]2CN(c3ncccc3F)CC[C@H]2N1CCc1ccccc1 was CoaBC: 3.99%. With CCCc1nc(CNC(=O)Cc2csc(C)n2)cs1 the screen gave Toxoplasma: -11.71%; CoaBC: -4.177%. CCC(=O)Nc1cccc(OCC(=O)N2C[C@H]3CC[C@H]2C3)c1 read CoaBC: 2.635%.

Once more, the final 2:

| Compound | Toxoplasma | CoaBC |
|---|---|---|
| `CCCc1nc(CNC(=O)Cc2csc(C)n2)cs1` | -11.71% | -4.177% |
| `CCC(=O)Nc1cccc(OCC(=O)N2C[C@H]3CC[C@H]2C3)c1` | - | 2.635% |